PubChem BioAssay AID602196 – INSERM – 2012
Screen: 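Knock-downs that protect lung cancer cells from cisplatin or sensitise them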. Cell system: human A549 lung cancer cells. Reagents: siRNA pair against human genes. Duration: 48 h transfection before cisplatin; time from cisplatin to read-out not stated. Conditions: cisplatin at a dose killing half of control-siRNA cells; exact dose and duration not given. Measurement: 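Shift in cisplatin death relative to control siRNA, from -50 (all cells die) to +50 (no cells die); siRNAs harmful on their own scored 0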. Direction: two-siRNA summed score (-2 to +2): higher = both siRNAs protect from cisplatin killing; -2 means both sensitise; mean protection from cisplatin (shift in death): higher = protection from cisplatin killing. Active means: 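siRNAs harmful alone (LDH or WST-1) get 0; others get +1 for less and -1 for more cisplatin killing; genes are active when the two siRNAs give the same sign, summing to ±2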. Calls: active = both siRNAs shift cisplatin killing the same way; inactive = no consistent shift, or siRNA harmful alone.
The whole screen tested about 23,000 reagents; shown is a part drawn at random. 455 of them (2%) were called active. 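Active includes both protection and sensitisation; some change values fall well beyond the stated -50 to +50 range.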 Entries without a mark were called inactive. Further read-outs or replicates are left out here. Reagent sequences are not shown. Not given: the amount of reagent.

LOC440621 | two-siRNA summed score (-2 to +2): 2 (active); mean protection from cisplatin (shift in death) (%): 21.1
CHCHD6 | two-siRNA summed score (-2 to +2): 0; mean protection from cisplatin (shift in death) (%): 5.1
LOC402244 | two-siRNA summed score (-2 to +2): -1; mean protection from cisplatin (shift in death) (%): -11.5
RUFY3 | two-siRNA summed score (-2 to +2): 0; mean protection from cisplatin (shift in death) (%): -1.4
LRRC74B | two-siRNA summed score (-2 to +2): 0; mean protection from cisplatin (shift in death) (%): 3.3
CYP4B1 | two-siRNA summed score (-2 to +2): 0; mean protection from cisplatin (shift in death) (%): 4
TULP3 | two-siRNA summed score (-2 to +2): 0; mean protection from cisplatin (shift in death) (%): 2.4
KRT33A | two-siRNA summed score (-2 to +2): 0; mean protection from cisplatin (shift in death) (%): 17
RPUSD1 | two-siRNA summed score (-2 to +2): 0; mean protection from cisplatin (shift in death) (%): 0.8
CATSPERB | two-siRNA summed score (-2 to +2): 0; mean protection from cisplatin (shift in death) (%): 2.1
OR5K3 | two-siRNA summed score (-2 to +2): 1; mean protection from cisplatin (shift in death) (%): 4.3
EGLN1 | two-siRNA summed score (-2 to +2): 0; mean protection from cisplatin (shift in death) (%): -2
LOC388116 | two-siRNA summed score (-2 to +2): -1; mean protection from cisplatin (shift in death) (%): -3.9
NXPE2 | two-siRNA summed score (-2 to +2): 0; mean protection from cisplatin (shift in death) (%): 6.8
GALR2 | two-siRNA summed score (-2 to +2): 0; mean protection from cisplatin (shift in death) (%): 1.8
LOC392702 | two-siRNA summed score (-2 to +2): 0; mean protection from cisplatin (shift in death) (%): 7.8
LOC387764 | two-siRNA summed score (-2 to +2): 1; mean protection from cisplatin (shift in death) (%): 11
RIPK2 | two-siRNA summed score (-2 to +2): 0; mean protection from cisplatin (shift in death) (%): -11.5
SELENOK | two-siRNA summed score (-2 to +2): 0; mean protection from cisplatin (shift in death) (%): -0.8
SIGLEC6 | two-siRNA summed score (-2 to +2): 1; mean protection from cisplatin (shift in death) (%): 19.6
STAT1 | two-siRNA summed score (-2 to +2): -1; mean protection from cisplatin (shift in death) (%): -7.5
LOC440515 | two-siRNA summed score (-2 to +2): 0; mean protection from cisplatin (shift in death) (%): 5
BLTP3A | two-siRNA summed score (-2 to +2): 0; mean protection from cisplatin (shift in death) (%): -2.2
ATP6V1E1 | two-siRNA summed score (-2 to +2): 0; mean protection from cisplatin (shift in death) (%): 6.4
LOC390898 | two-siRNA summed score (-2 to +2): 1; mean protection from cisplatin (shift in death) (%): 8.1
CHMP7 | two-siRNA summed score (-2 to +2): 1; mean protection from cisplatin (shift in death) (%): 12.7
AGTPBP1 | two-siRNA summed score (-2 to +2): 0; mean protection from cisplatin (shift in death) (%): 8.7
OR4P4 | two-siRNA summed score (-2 to +2): 0; mean protection from cisplatin (shift in death) (%): 5.4
MORN3 | two-siRNA summed score (-2 to +2): 0; mean protection from cisplatin (shift in death) (%): 3.8
FCSK | two-siRNA summed score (-2 to +2): -1; mean protection from cisplatin (shift in death) (%): -8.5
SFXN5 | two-siRNA summed score (-2 to +2): 0; mean protection from cisplatin (shift in death) (%): 6.7

3 successive entries already listed, quoted:
CATSPERB | two-siRNA summed score (-2 to +2): 0; mean protection from cisplatin (shift in death) (%): 2.1
OR5K3 | two-siRNA summed score (-2 to +2): 1; mean protection from cisplatin (shift in death) (%): 4.3
EGLN1 | two-siRNA summed score (-2 to +2): 0; mean protection from cisplatin (shift in death) (%): -2
